From publication PMC11277477 come the findings set out here.

B1: EhVps23 (protein, UniProt C4LUR9 1-283)
chain: MNLSKIDLTLSTVKPYYLYYLRVRVEITSVMQYYKFSATVRTYADGIILASLVGTIPIVYRGSQFCLPLCIMYPYDYPLSPPLFFTDPTPEMEVVPGHPYAMPNIVICHPILDRWSENVNTLSVLQVFVKDFSYMPPLRMKTSVIPSYSCYFPEWSSYYSYPQNYNQPIPLNHSHQLPSISSIYATESNPSIPPPQSQQLPSFQNTMDTLFTIDGFAPFKTKENECSQSPSHKKLFTKSSGPMITDLKAFVLGKQQHMKRSLPTISQTKKYKTRTTLTPLNTK
B2: Actin (EHI_008780) (protein, UniProt C4M0P2 1-763)
chain: MNFFKKQFNGNEFMVRCQCALRRISAQQKKYQTHSKTFKKQIIELLQNNERDKAFDKCTLLVQEDYKNEALTELIDVIDELMKNSEIIGTQRICPLELKSACGAILYASPYFPDHTEMMELRNMLIDKFGKTFPEECVNSKVISPKLLSRLSSKPVDSDVVNYYLDSIAKENNLITEENKLPEENPNEMLPADASKCELSRLLDGKQNNKYTFGVLTKNVIGKIKKGGDKVEAYISGPNNTKIIGEVTDLHDGTYDIVFVPPYAGNYLIAVYVNDKQIEQIGKLHILEANSLDLNKCIIEGNGIKGGYVNEKQNFTIIAKDSSGQTINHGGEPFAAYIAGPNDVKIIGDITDLKNGQYDVSYVPPIKGNYAIAVYHNTTLVQSVFNFSIEERSTQQQFPTIQQHIQPQITKSFIPVQGKPGEHFIIDIGSCSIKSGFESVGTPSIVTPTVVGKNLHQTSGFVEQNLYVGDEAIDKRGILSLEYPMQKEPIDYNSLKSVMKHSVEVAQGHPTVVITNGLTPLQMKINTSEILFNEGVQSIRFVDEAQAISRLYNKQNCVIVNIGGMMSWVIPVINGIVYNNISQKLPIAGVKCTEILMALLSKEGITLGSTSSEKEIARQIKEATGYIQVSHNSLIQPINYSLPDGTSLTIGNSRVQCFEPLFNPQLCAMNCSGISQMIATVLRNINGCTNEIILVGGGSLIKGLKERIENDIQQLLNFKINVIAEDNRKFASWLGANLLDKENIGKIITLDTWKQEGALCLDD
B3: EhVps32 (protein, UniProt C4M1A5 1-204)
chain: MSWFRRNTTKQTIAKMNEQIKTMEKKEEYDRKRMEMELEKAKECMKKGDKTGAAQHLRKKKMHEKNMNETINLRMNLESQILEMESAKVKVDTARSFAAANKEMTKINKEMDAGKIEKTMDELRENNEKSHEIGDLLGEDLQDIDQGELEDDLAELEDQVLDEQEDELAELEHDLPAPKAKVTKQKVTKKTLTQEEEDELAELM

No constants are given. Whether binding was seen depends on the method and setting. In cells and extracts the contact can be indirect. Binding can be weak; no strength is given.

In the assay the target is GST-EhADH recombinant protein (E. histolytica). In words: pull-down; GST-tagged bait bound to glutathione-Sepharose (200 μg) incubated with total trophozoite lysate (2 mg), 4 h, 4 °C; bound proteins detected by western blot with specific antibodies; only the target purified.
For the molecule B1, the binding entry is on record as “binds”.

Take B2: the binding entry was “binds”.

With B3, the binding entry is listed as “binds”.
